Laboratory results: patent US20240327535A1 (EISAI R AND D MANAGEMENT, published 2024)
No constants are given. Whether binding was seen depends on the method and setting. Some entries that bind do so weakly or less than the wild type.

Sequences of proteins named here, by UniProt entry; tags and fusion partners are left off. A change or cut given only in a name is not applied to a line headed by its entry. A line that says so, or that is headed by a name, gives the form on record, which may keep a tag or linker.
extracellular domain of rhesus monkey BCMA (F7FFA0, form named): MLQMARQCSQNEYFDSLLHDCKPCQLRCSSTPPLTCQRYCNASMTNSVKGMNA

Target: extracellular domain of rhesus monkey BCMA (rhesus monkey) (UniProt F7FFA0)
Assay: Octet BLI; Fab 200 nM

B1: AB200-R1a-Fab_Vk6 (Fab, V domains shown)
VH: QVQLVQSGAEVKKPGSSVKVSCKASGGTFSNYWMHWVRQAPGQGLEWMGATYRGHSDTYYNQKFKGRVTITADKSTSTAYMELSSLRSEDTAVYYCARGAIYHGYDVLDNWGQGTLVTVSS
VL: DIQMTQSPSSLSASVGDRVTITCSATQDISNYLNWYQQKPGKAPKLLIYFTSNLQSGVPSRFSGSGSGTDFTLTISSLQPEDFATYYCQQYRKLPWTFGQGTKLEIKR
notes: also called AB200 kappa variant 6; AB200_Vk6_Fab
How did the binding turn out when B1 was run?
Its binding is “binds”.
